Measured values published in PMC7819943, “Rice protein-binding microarrays: a tool to detect cis-acting elements near promoter regions in rice”.
The other results are listed elsewhere or left out.

The chains behind the UniProt entries cited, without tags or fusion partners.
UniProt Q0JBA9, entry or part of it: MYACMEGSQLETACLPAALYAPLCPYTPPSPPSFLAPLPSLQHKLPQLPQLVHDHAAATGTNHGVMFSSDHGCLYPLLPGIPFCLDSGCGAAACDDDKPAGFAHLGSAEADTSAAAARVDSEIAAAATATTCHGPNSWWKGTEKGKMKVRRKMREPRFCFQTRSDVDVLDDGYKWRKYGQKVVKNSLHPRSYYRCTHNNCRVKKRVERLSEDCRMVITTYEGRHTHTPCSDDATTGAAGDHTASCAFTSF

target: OsWRKY34 (Oryza sativa, UniProt Q0JBA9 1-250); assay: protein-binding microarray (RPBM); PBS, 2% BSA, 51.3 ng/ul salmon testes DNA, 50 uM zinc acetate, 200 nM TF, 25 C, 1 h; high values mean tight binding; settings: protein: recombinant; tags: N-terminal polyhistidine and DsRed monomer fusion (pET32a); label: CyDye5-dUTP incorporated in the synthesized complementary strand; 3' TTTTT single-stranded linker to array surface; dsDNA, one strand shown
Procedure, shortened: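 Binding signal is defined as the fluorescence intensity of each feature in arbitrary units, read on an Axon 4000B scanner. Transcription factors with N-terminal polyhistidine and DsRed fusions came from E. coli BL21-CodonPlus and were purified on Ni–NTA. They were incubated at 200 nM for 1 h at 25 °C on a custom Agilent array that had been made double-stranded with Cy5-dUTP, with 50 µM zinc acetate present, and the array was washed.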

Sequence | binding signal
GGGGTTGATCTCCCGCCCATTTGGGGCTCGGTATTGAGGTCGGAGTCACCTAGTGCAG | 8060 fluorescence intensity (a.u.)
TTGGATGTTGGTATGCTGTGTAGCTGTTGCTCTATGAACACGGAGTCACCTAGTGCAG | 10600 fluorescence intensity (a.u.)
GTTTTGTGCTGTGCTTTCCCCTCCTTTCATGCCTCAAAGCCGGAGTCACCTAGTGCAG | 9230 fluorescence intensity (a.u.)
GTGATCCGACCTGACCGGCCTCCGTTTCGCGTCTCCGTTGCGGAGTCACCTAGTGCAG | 9180 fluorescence intensity (a.u.)
CTGCCAATTCCCAGCCTCTCCTTGTCTCCCCGAGGCTAAACGGAGTCACCTAGTGCAG | 10400 fluorescence intensity (a.u.)
CGCGTACCGACAGGTCACATCGGGGCCATCCTGACCGTCCCGGAGTCACCTAGTGCAG | 8850 fluorescence intensity (a.u.)
ACCTTCTGCCTGCCTGCGCCGGATTCGCCTTCCTCCCGATCGGAGTCACCTAGTGCAG | 11900 fluorescence intensity (a.u.)
TCGCGCCTCCGACCGTCCGATCAGCTGCCAACCCCGGGCTCGGAGTCACCTAGTGCAG | 8400 fluorescence intensity (a.u.)
GCCTCTCTCGTAGTCTCAGTTCTCCTCCTACGTTCTACTGCGGAGTCACCTAGTGCAG | 10800 fluorescence intensity (a.u.)
AGATTTTGGGTGTGTTTGGTTGCTTGCATTGTTTTAGTCTCGGAGTCACCTAGTGCAG | 9320 fluorescence intensity (a.u.)
GGGGTGTGTGTGCTCGGCTACTCCGGTGGGTCGGGTCTGGCGGAGTCACCTAGTGCAG | 12700 fluorescence intensity (a.u.)
TCAGTTTGCCCACCGCCGCCTCCGCCTTCGCCGCCGCCATCGGAGTCACCTAGTGCAG | 8180 fluorescence intensity (a.u.)
AATATTTTTTTTCTCAATCATTTCTTATCATTATTATTATCGGAGTCACCTAGTGCAG | 8280 fluorescence intensity (a.u.)
TTTTATGGTGTTCTATAGTATAGTCAATCGACTTTTCATCCGGAGTCACCTAGTGCAG | 8130 fluorescence intensity (a.u.)
TTTCTCTTTATTTCTTTCTCCCATTCTTCCTTTCTCTTTACGGAGTCACCTAGTGCAG | 8890 fluorescence intensity (a.u.)
TGCAACTAACGCCTCACATGGTACACAGCACAGCAGCAGCCGGAGTCACCTAGTGCAG | 8400 fluorescence intensity (a.u.)
GGGTAATTCGTCTGGTATTGAAAGTTCCGGGTGAACAATACGGAGTCACCTAGTGCAG | 8310 fluorescence intensity (a.u.)
GCACACATCTCTCTCGCTCTACAACTCACCACCAAAGAGGCGGAGTCACCTAGTGCAG | 11800 fluorescence intensity (a.u.)
CCCGCACTTCCTTGCTTGGTGTGATCGGCCGCTTCCAATTCGGAGTCACCTAGTGCAG | 8460 fluorescence intensity (a.u.)
GACCCGTTCACACCACTACGCTTCCAGCTATAGGCAGTATCGGAGTCACCTAGTGCAG | 8410 fluorescence intensity (a.u.)
CAACTGTGCCGCCGTCTCGCCGTTCCAATGGTAAGCACACCGGAGTCACCTAGTGCAG | 8470 fluorescence intensity (a.u.)

A few values from the results shown.
In binding signal, TCAGTTTGCCCACCGCCGCCTCCGCCTTCGCCGCCGCCATCGGAGTCACCTAGTGCAG reads 8180 fluorescence intensity (a.u.)
In binding signal, GTTTTGTGCTGTGCTTTCCCCTCCTTTCATGCCTCAAAGCCGGAGTCACCTAGTGCAG reads 9230 fluorescence intensity (a.u.)

Following part

Sequence | binding signal
TCAGTAAAGTCTCTTCTCTTGCTCATGCTAGCCCTGTCATCGGAGTCACCTAGTGCAG | 10400 fluorescence intensity (a.u.)
TCGTGCGCCACGCGTCGTACGCGCGTGGGCTTCTTTCCTCCGGAGTCACCTAGTGCAG | 9650 fluorescence intensity (a.u.)
GCCTCATACTCCTTTTTTTTTTGTCTTTTTTGGTGCTCTACGGAGTCACCTAGTGCAG | 10300 fluorescence intensity (a.u.)
TTAAGCCCCAACTAACTCTCTCCCTCCAGGACATTTTTTTCGGAGTCACCTAGTGCAG | 8700 fluorescence intensity (a.u.)
ATGCTATTTACCATCCTACGAAGTTTCTGTTTCAGACTCTCGGAGTCACCTAGTGCAG | 8370 fluorescence intensity (a.u.)
TCCATGTACAATTAGTTGACCATTCTTCTAGTTAGCTTCTCGGAGTCACCTAGTGCAG | 9620 fluorescence intensity (a.u.)
TTATTTTATGAAATGGATCAGTATTGTTTGTCTGTTTGTACGGAGTCACCTAGTGCAG | 8580 fluorescence intensity (a.u.)
AACACTTTGACTTTTACATAGGCCATGTCTCCATCCGAGACGGAGTCACCTAGTGCAG | 12400 fluorescence intensity (a.u.)
TGAAGCTAATGTCCTTGTGTTGCGCTTTCCTTTTGTTCTCCGGAGTCACCTAGTGCAG | 12100 fluorescence intensity (a.u.)
ACCTTTTCTTTCTCGCAGGAGTAGTATTTTTGAGGGTTTGCGGAGTCACCTAGTGCAG | 12900 fluorescence intensity (a.u.)
GGCCTCCTCGTCCTCACAAACTTCTCGTTTTCCTCGTACTCGGAGTCACCTAGTGCAG | 10600 fluorescence intensity (a.u.)
TTTTTGTGTATTGAGCTTGGATTCTGAATCATTGGTTCTTCGGAGTCACCTAGTGCAG | 8480 fluorescence intensity (a.u.)
CGAGAGCGTTTTCCATTCGTGTTATGAGATTAGTTTTTTTCGGAGTCACCTAGTGCAG | 8450 fluorescence intensity (a.u.)
TACCTCCGTCTCAAATAAGTAGTGTCTTTGACTTTTTGTTCGGAGTCACCTAGTGCAG | 13100 fluorescence intensity (a.u.)
AGCCCGCACGTTCGCCGCAATCCAGTTCCTGGCCCAACTACGGAGTCACCTAGTGCAG | 11500 fluorescence intensity (a.u.)
CATTCATCATCTGCATATATATAATCGTCTTCGTCGTCATCGGAGTCACCTAGTGCAG | 12500 fluorescence intensity (a.u.)
CCTACTTAATATAACACCAGCTTTGTTGGCTTCATTTTTTCGGAGTCACCTAGTGCAG | 8200 fluorescence intensity (a.u.)
CTCCGTCCTTAAATATTTGACGTCGTTGACTTTTTTAAACCGGAGTCACCTAGTGCAG | 26000 fluorescence intensity (a.u.)
TATGTCTGTATCGTTTTTCACGCGCGTGCTTCCCAAACTACGGAGTCACCTAGTGCAG | 11200 fluorescence intensity (a.u.)
TCCCATTGAGTTCATAACATCACCCCATTATCATCCCATTCGGAGTCACCTAGTGCAG | 10700 fluorescence intensity (a.u.)
ATTGTGGACTGTTTGACCTCCAGTTTGGACTGTAGGAATTCGGAGTCACCTAGTGCAG | 8060 fluorescence intensity (a.u.)

Pulled one by one from above:
Sequence | binding signal
TGAAGCTAATGTCCTTGTGTTGCGCTTTCCTTTTGTTCTCCGGAGTCACCTAGTGCAG | 12100 fluorescence intensity (a.u.)
GGCCTCCTCGTCCTCACAAACTTCTCGTTTTCCTCGTACTCGGAGTCACCTAGTGCAG | 10600 fluorescence intensity (a.u.)

Following part.

Sequence | binding signal
TTGCCGGGACGCGCCTGGGCGGGCGGGCGGGCTCGAGGTTCGGAGTCACCTAGTGCAG | 10900 fluorescence intensity (a.u.)
TTACTAGCACTAAAATTTTCTATTCCATCCGTTTCAATCACGGAGTCACCTAGTGCAG | 8840 fluorescence intensity (a.u.)
TCGCCTTGTCCGCGCGTGCGCCACCGTTTCCACCCAGATTCGGAGTCACCTAGTGCAG | 11900 fluorescence intensity (a.u.)
CTCTTTGCTGCATGTTGTTCGACCTTTTTACTTACATATTCGGAGTCACCTAGTGCAG | 11000 fluorescence intensity (a.u.)
GTCCTGTTCTTGACTTCTCGTCTACTTACTTGGTAGCTTACGGAGTCACCTAGTGCAG | 9870 fluorescence intensity (a.u.)
TTTTCCGACCGTTTCCGACCGTTTTCATCCCTAGCCCTGACGGAGTCACCTAGTGCAG | 8490 fluorescence intensity (a.u.)
AAGATTTGTGATGTTACTTTATTTGTGATGTGGATTTGGGCGGAGTCACCTAGTGCAG | 9570 fluorescence intensity (a.u.)
CACAAGCTTTCTGTCCACCCCTAACCACATGTAAATGCCTCGGAGTCACCTAGTGCAG | 9300 fluorescence intensity (a.u.)
ACCCTCGCTCTGCCCGTCGATCTCCGTCGCCTTCTGATCCCGGAGTCACCTAGTGCAG | 9570 fluorescence intensity (a.u.)
AGAAGTCATATTCCTTTGAGAGTGTTGTGTGCTTGTTTTGCGGAGTCACCTAGTGCAG | 9850 fluorescence intensity (a.u.)
TTTATTAAACCTAGTTAATCCATTGTTAGCAAATATTTAACGGAGTCACCTAGTGCAG | 23300 fluorescence intensity (a.u.)
TGGTGGTGGTGGATGAGGGAGCGACAATTTGGGAGGAGGTCGGAGTCACCTAGTGCAG | 10800 fluorescence intensity (a.u.)
TAACTTTTTCATCACATCAACACTTTCCTACACACGTAAACGGAGTCACCTAGTGCAG | 8300 fluorescence intensity (a.u.)
TACTATTCCTTGTACTTTTACATCTCTTACTCTTAGTGATCGGAGTCACCTAGTGCAG | 10300 fluorescence intensity (a.u.)
GTGGGTTCTTTGTGGGGTCTCTTATAGTTTTCACTGCCAGCGGAGTCACCTAGTGCAG | 20500 fluorescence intensity (a.u.)
CGCCATGCCCCGCCGCAACGCCGTCTCCTGGACCACCCTCCGGAGTCACCTAGTGCAG | 9600 fluorescence intensity (a.u.)
GCTCTTTTTTTTTATAAAATATATATTCCGTCTCAATTTTCGGAGTCACCTAGTGCAG | 9230 fluorescence intensity (a.u.)
ACAAATCTGTAGCCCACTGCCATTCTCTCTCCTCATTTATCGGAGTCACCTAGTGCAG | 8150 fluorescence intensity (a.u.)
CCCCTCCATGACTTGTGTTTTGCCATCGCGCGCTTTTGCCCGGAGTCACCTAGTGCAG | 8680 fluorescence intensity (a.u.)
TTCGTTGTACTTACCATCGTTGTTTAGTTTGATTTTTTTTCGGAGTCACCTAGTGCAG | 8950 fluorescence intensity (a.u.)
TACTGTTCATATCCAATGTTTAACCATCCGTCTTATCTAACGGAGTCACCTAGTGCAG | 9360 fluorescence intensity (a.u.)

Sequence | binding signal
TGGGAGGGTTTCTGATCATCAGCTGTCCTCTTTACCGGCACGGAGTCACCTAGTGCAG | 11300 fluorescence intensity (a.u.)
TATTTGGCTGTATTGGTTATTTCTATTATTCTATTCAATTCGGAGTCACCTAGTGCAG | 11100 fluorescence intensity (a.u.)
CTTTGCACCCCATTTTCGGCTGTGTTTAGTTCACGTCAAACGGAGTCACCTAGTGCAG | 8660 fluorescence intensity (a.u.)
TTTTCACAGAAATCAGTCTATTTCTACTTCTTACCGATTTCGGAGTCACCTAGTGCAG | 8100 fluorescence intensity (a.u.)
TATACTACTCTATCTGTTTCATGTTATAAAACGTTTTGACCGGAGTCACCTAGTGCAG | 9660 fluorescence intensity (a.u.)
GCGACTATGGTTTGTGTGTGTTGTATCATTACCTAATTAGCGGAGTCACCTAGTGCAG | 10800 fluorescence intensity (a.u.)
GGGTCTTAGGTTCTTAGCGCTTTTGTTTGACTCCTGATCGCGGAGTCACCTAGTGCAG | 8160 fluorescence intensity (a.u.)
AGCGATGATCTAGCCATAAATCTTTCCGTTGACTCTCGCGCGGAGTCACCTAGTGCAG | 10900 fluorescence intensity (a.u.)
GAATTGGTTCTGTGATGGAAGAACTACATTTGGATGATAACGGAGTCACCTAGTGCAG | 8710 fluorescence intensity (a.u.)
CTCAATTTCCCATCCCCATCCCACCAAAATTCACATGTATCGGAGTCACCTAGTGCAG | 8270 fluorescence intensity (a.u.)
CTCGCCGCCCACCGGATACACCGCCCACCGCCGGGCTGCCCGGAGTCACCTAGTGCAG | 10400 fluorescence intensity (a.u.)
CCACCTCTGCCCTATGACCTCGCCTGTGGTCGCCGCCGCGCGGAGTCACCTAGTGCAG | 10200 fluorescence intensity (a.u.)
GCTTAGACTCTGCCGGTCTGACCGGCCACATACCGCCGGTCGGAGTCACCTAGTGCAG | 8830 fluorescence intensity (a.u.)
TATGCTGGTACCTGTGTTTATTCATGACCTGATTCTCATACGGAGTCACCTAGTGCAG | 8900 fluorescence intensity (a.u.)
GTGTTCACTAAAATGCTATTTTGGGTCTTTTGGGTTAATACGGAGTCACCTAGTGCAG | 8100 fluorescence intensity (a.u.)
CCCGCCGCCGCCTCCTTGATCTCCTCGCCGCACTCTCTGTCGGAGTCACCTAGTGCAG | 11300 fluorescence intensity (a.u.)
TTCATCCTTCGACTGTGTTTATCCTTTTTCTGATGTGTTTCGGAGTCACCTAGTGCAG | 12400 fluorescence intensity (a.u.)
GTCCCATGTTTGAATCTTATGAACCGTTCATATTTTACATCGGAGTCACCTAGTGCAG | 12400 fluorescence intensity (a.u.)
AGCAATATTTGGATCTCTCCTTTTTTTTATTTTTTTATTTCGGAGTCACCTAGTGCAG | 10500 fluorescence intensity (a.u.)
GCGTGTCGTGGCCGCACATCCATATCCATGTCATCCTCATCGGAGTCACCTAGTGCAG | 8660 fluorescence intensity (a.u.)
CCGATCTGAAGTAGGAGTATTAGGTTATGTTCTTTACTCTCGGAGTCACCTAGTGCAG | 8540 fluorescence intensity (a.u.)
